Drawing on PubChem BioAssay AID248 (DTP/NCI, 2004), this text covers T/C and survivor count for 13 compounds.

In this test the test system is L1210 leukemia ip in BDF1 mice, survival T/C. The test is described as follows: NCI In Vivo Anticancer Drug Screen. Data for tumor model L1210 Leukemia (intraperitoneal) in B6D2F1 (BDF1) mice. The conditions noted are these: higher T/C = longer survival.
Where [1] appears, read: T/C endpoint: mean survival time, dose: 50.0 mg/kg/injection, schedule: Q01DX009 (ip), vehicle: Klucel (hydroxypropylcellulose) (HPC).
The mark [2] stands for this setting: T/C endpoint: mean survival time, dose: 100.0 mg/kg/injection, schedule: Q01DX009 (ip), vehicle: Klucel (hydroxypropylcellulose) (HPC).
[3] abbreviates: T/C endpoint: mean survival time, dose: 100.0 mg/kg/injection, schedule: Q04DX003 (ip), vehicle: Klucel (hydroxypropylcellulose) (HPC).
[4] abbreviates: T/C endpoint: mean survival time, dose: 200.0 mg/kg/injection, schedule: Q04DX003 (ip), vehicle: Klucel (hydroxypropylcellulose) (HPC).
Setting [5] is: T/C endpoint: mean survival time, dose: 400.0 mg/kg/injection, schedule: Q04DX003 (ip), vehicle: Klucel (hydroxypropylcellulose) (HPC).
Setting [6] is: T/C endpoint: mean survival time, dose: 50.0 mg/kg/injection, schedule: Q04DX003 (ip), vehicle: saline.
[7] abbreviates: T/C endpoint: mean survival time, dose: 100.0 mg/kg/injection, schedule: Q04DX003 (ip), vehicle: saline.
Where [8] appears, read: T/C endpoint: mean survival time, dose: 200.0 mg/kg/injection, schedule: Q04DX003 (ip), vehicle: saline.

The list shows only some results of the screen, not a fair sample: it covers a few groups of compounds. Other doses and runs of a compound may be missing. T/C: endpoint of the treated group in % of that of the vehicle group. Some entries give survivors of the animals treated and no T/C: the source files T/C as zero there, which appears to mark a toxic dose or a test without result, not a measured value. Some doses without a T/C left all or most animals alive at the check, yet need not have been tolerated: survival well below the control is almost never listed, so the zero probably covers shortened survival too. Survivors were counted at the toxicity check, usually on the fifth day, unless a day is given; later deaths do not show. Schedule codes are those of the source, read here as Q, the interval in days (D) or hours (H), X, the number of doses. Some complexes appear as separate parts, the way the source draws them; their charges need not add up. For survival time, this PubChem deposit counts one and a half times the control or more as active, and values a quarter to a half above the control carry no call in these data; other NCI protocols may use other cut-offs. Some schedule codes hold Z or #, which are not explained here. Some doses were run more than once; their values stand side by side, smallest first. Some T/C values are marked as having no survivor count here; that says nothing about deaths at the dose. Some T/C values are followed by the survivors on the day toxicity was checked, most often the fifth; without a count or a note in brackets, all were alive then.

Take `ClP(Cc1ccccc1)Cc1ccccc1`: the T/C is 101 % of control (T/C endpoint: mean survival time, dose: 75.0 mg/kg/injection, schedule: Q01DX001 (ip), vehicle: carboxymethylcellulose (CMC)); 95 % of control (T/C endpoint: mean survival time, dose: 150.0 mg/kg/injection, schedule: Q01DX001 (ip), vehicle: carboxymethylcellulose (CMC)); 101 % of control (T/C endpoint: mean survival time, dose: 300.0 mg/kg/injection, schedule: Q01DX001 (ip), vehicle: carboxymethylcellulose (CMC)).

On to `CC(Cl)CSc1ccccc1` (configuration not stated), for which the T/C (T/C endpoint: mean survival time, dose: 100.0 mg/kg/injection, schedule: Q01DX009 (ip), vehicle: saline with Tween-80) is 109 % of control.

Regarding `CN(N)/C(N)=N/[N+](=O)[O-]`, the T/C is, setting by setting: (T/C endpoint: mean survival time, dose: 50.0 mg/kg/injection, schedule: Q01DX001 (ip), vehicle: Klucel (hydroxypropylcellulose) (HPC)) 98 % of control; (T/C endpoint: mean survival time, dose: 100.0 mg/kg/injection, schedule: Q01DX001 (ip), vehicle: Klucel (hydroxypropylcellulose) (HPC)) 114 % of control; (T/C endpoint: mean survival time, dose: 200.0 mg/kg/injection, schedule: Q01DX001 (ip), vehicle: Klucel (hydroxypropylcellulose) (HPC)) 96 % of control.

Consider `Cc1ccc(C(=O)OCCNCCCl)cc1`, for which the T/C was 105 % of control [5 of 6 alive] (T/C endpoint: median survival time, dose: 100.0 mg/kg/injection, schedule: Q01DX009 (ip), vehicle: Klucel (hydroxypropylcellulose) (HPC)) and 100 % of control (T/C endpoint: median survival time, dose: 200.0 mg/kg/injection, schedule: Q01DX009 (ip), vehicle: Klucel (hydroxypropylcellulose) (HPC)). Also, the survivor count (T/C endpoint: median survival time, dose: 400.0 mg/kg/injection, schedule: Q01DX009 (ip), vehicle: Klucel (hydroxypropylcellulose) (HPC)) is given as 3 of 6.

With `O=C(O)CCc1ccc(Oc2cc([N+](=O)[O-])c([N+](=O)[O-])c([N+](=O)[O-])c2)cc1`, the T/C by setting is: (T/C endpoint: mean survival time, dose: 100.0 mg/kg/injection, schedule: Q04DX002 (ip), vehicle: Klucel (hydroxypropylcellulose) (HPC)) 93 % of control; (T/C endpoint: mean survival time, dose: 200.0 mg/kg/injection, schedule: Q04DX002 (ip), vehicle: Klucel (hydroxypropylcellulose) (HPC)) 93 % of control; (T/C endpoint: mean survival time, dose: 400.0 mg/kg/injection, schedule: Q04DX002 (ip), vehicle: Klucel (hydroxypropylcellulose) (HPC)) 97 % of control.

For the compound `C1C[N-]1.C1C[N-]1.C1C[N-]1.[Cl][Rh]([Cl])[Cl]`, the T/C under setting [1] was 108 % of control; the T/C under setting [2] was 105 % of control; the T/C under setting [3] is 114 % of control [5 of 6 alive]; the T/C (T/C endpoint: mean survival time, dose: 200.0 mg/kg/injection, schedule: Q01DX009 (ip), vehicle: Klucel (hydroxypropylcellulose) (HPC)) is 103 % of control [5 of 6 alive]; the T/C under setting [4] is 113 % of control. For the same compound, the survivor count under setting [5] is listed as 2 of 6.

For the compound `O=[N+]([O-])c1ccc(Nc2ccc([N+](=O)[O-])cc2[N+](=O)[O-])c([N+](=O)[O-])c1`, the T/C runs as follows: under setting [3], 95 % of control [survivor count not shown]; under setting [4], 97 % of control [survivor count not shown]; under setting [5], 89 % of control [survivor count not shown].

Consider `ClCCNNCc1ccc(Cl)cc1`, for which the T/C by setting is: under setting [6], 99 % of control; under setting [7], 99 % of control; under setting [8], 118 % of control [2 of 3 alive].

For the compound `CCC[As](=O)(O)O`, the T/C by setting is: (T/C endpoint: mean survival time, dose: 25.0 mg/kg/injection, schedule: Q01DX009 (ip), vehicle: saline) 95 % of control; under setting [7], 94 % of control [4 of 6 alive]. The survivor count reads like this: (T/C endpoint: mean survival time, dose: 50.0 mg/kg/injection, schedule: Q01DX009 (ip), vehicle: saline) 3 of 6; (T/C endpoint: mean survival time, dose: 100.0 mg/kg/injection, schedule: Q01DX009 (ip), vehicle: saline) 0 of 6; under setting [8], 2 of 6; (T/C endpoint: mean survival time, dose: 400.0 mg/kg/injection, schedule: Q04DX003 (ip), vehicle: saline) 1 of 6.

In the case of `CC[O+](CC)CC`, the survivor count was 3 of 3 (T/C endpoint: mean survival time, dose: 50.0 mg/kg/injection, schedule: Q04DX002 (ip), vehicle: saline); 0 of 3 (T/C endpoint: mean survival time, dose: 100.0 mg/kg/injection, schedule: Q04DX002 (ip), vehicle: saline); 0 of 3 (T/C endpoint: mean survival time, dose: 200.0 mg/kg/injection, schedule: Q04DX002 (ip), vehicle: saline).

Regarding `CC1=NCCN(C)CCN(C)CCN=C(C)C1.F[P-](F)(F)(F)(F)F.[Ni+2]`, the T/C is 102 % of control (T/C endpoint: mean survival time, dose: 25.0 mg/kg/injection, schedule: Q01DX001 (ip), vehicle: saline) and 95 % of control (T/C endpoint: mean survival time, dose: 50.0 mg/kg/injection, schedule: Q01DX001 (ip), vehicle: saline). The survivor count is on record as 0 of 3 (T/C endpoint: mean survival time, dose: 100.0 mg/kg/injection, schedule: Q01DX001 (ip), vehicle: saline) and 0 of 3 (T/C endpoint: mean survival time, dose: 200.0 mg/kg/injection, schedule: Q01DX001 (ip), vehicle: saline).

As for `C[N+](CCCl)(CCCl)Cc1ccccc1`, the T/C is, setting by setting: (T/C endpoint: mean survival time, dose: 2.5 mg/kg/injection, schedule: Q01DX Z (ip), vehicle: saline) 97 % of control; (T/C endpoint: mean survival time, dose: 5.0 mg/kg/injection, schedule: Q01DX Z (ip), vehicle: saline) 94 % of control; (T/C endpoint: mean survival time, dose: 10.0 mg/kg/injection, schedule: Q01DX Z (ip), vehicle: saline) 95 and 108 % of control; (T/C endpoint: mean survival time, dose: 20.0 mg/kg/injection, schedule: Q01DX Z (ip), vehicle: saline) 104 % of control; (T/C endpoint: mean survival time, dose: 25.0 mg/kg/injection, schedule: Q01DX009 (ip), vehicle: saline with Tween-80) 110 % of control; (T/C endpoint: mean survival time, dose: 40.0 mg/kg/injection, schedule: Q01DX Z (ip), vehicle: saline) 101 % of control. The T/C was 104 % of control under setting [6] and 111 % of control under setting [7].

Regarding `CN(C)CCCOC(=O)C(O)(Cc1ccccc1)c1cccc2c1OC(C)(C)C2` (configuration not stated), the T/C runs as follows: (T/C endpoint: mean survival time, dose: 25.0 mg/kg/injection, schedule: Q04DX003 (ip), vehicle: Klucel (hydroxypropylcellulose) (HPC)) 97 % of control; under setting [1], 103 % of control; (T/C endpoint: mean survival time, dose: 50.0 mg/kg/injection, schedule: Q04DX003 (ip), vehicle: Klucel (hydroxypropylcellulose) (HPC)) 103 % of control; under setting [2], 103 % of control; (T/C endpoint: mean survival time, dose: 100.0 mg/kg/injection, schedule: Q04DX003 (ip), vehicle: Klucel (hydroxypropylcellulose) (HPC), evaluated on day 20) 95 % of control; (T/C endpoint: mean survival time, dose: 100.0 mg/kg/injection, schedule: Q04DX003 (ip), vehicle: Klucel (hydroxypropylcellulose) (HPC), evaluated on day 30) 95 % of control.
